Like-named read-outs stand apart in the source and are kept apart here.
What was measured:
[1] = for plasma exposure: 2.5 mg/kg, female NZW rabbits
T cells = experiment: cells; details: T-cell, 3 h, read-out: IC50 proliferation
[2] = last application day

## Nc1nc2ccc(OC(F)(F)F)cc2s1 [Riluzole, 2-amino-6-(trifluoromethoxy)-benzothiazole]
[1]; single dermal application, 4% cream in DAC Basiscreme
  plasma exposure: 363 ± 299 ng·h/mL
[1]; single oral administration, suspension in 1% MC
  plasma exposure: 157 ± 46 ng·h/mL
[1]; single topical 4% cream versus single oral suspension, 2.5 mg/kg each
  plasma exposure topical versus oral: more than twice as high
T cells
  IC50: 43 µM
[2]; oral 2.5 mg/kg for 8 consecutive days
  plasma exposure (mean): 86 ng·h/mL
[2]; topical 1% cream in DAC Basiscreme, twice daily 28 days
  plasma exposure (mean): 129 ng·h/mL
[2]; topical 2% cream in DAC Basiscreme, twice daily 28 days
  plasma exposure (mean): 191 ng·h/mL
[2]; topical 4% cream in DAC Basiscreme, twice daily 28 days
  plasma exposure (mean): 347 ng·h/mL
